Experimental data: patent US6624144B1, “Matrix metalloproteinase inhibitors and down-regulators” (CTT Cancer Targeting Technologies Oy, priority 1998, dated 2003)
No constants are given. Whether binding was seen depends on the method and setting. Binding calls can cover weak binding; strength is not graded here.

Protein sequences, listed by entry. Tags and fused reporters are not part of them. Lines headed by an entry give the natural chain unless they say otherwise; changes in a name come on top.
UniProt P14780: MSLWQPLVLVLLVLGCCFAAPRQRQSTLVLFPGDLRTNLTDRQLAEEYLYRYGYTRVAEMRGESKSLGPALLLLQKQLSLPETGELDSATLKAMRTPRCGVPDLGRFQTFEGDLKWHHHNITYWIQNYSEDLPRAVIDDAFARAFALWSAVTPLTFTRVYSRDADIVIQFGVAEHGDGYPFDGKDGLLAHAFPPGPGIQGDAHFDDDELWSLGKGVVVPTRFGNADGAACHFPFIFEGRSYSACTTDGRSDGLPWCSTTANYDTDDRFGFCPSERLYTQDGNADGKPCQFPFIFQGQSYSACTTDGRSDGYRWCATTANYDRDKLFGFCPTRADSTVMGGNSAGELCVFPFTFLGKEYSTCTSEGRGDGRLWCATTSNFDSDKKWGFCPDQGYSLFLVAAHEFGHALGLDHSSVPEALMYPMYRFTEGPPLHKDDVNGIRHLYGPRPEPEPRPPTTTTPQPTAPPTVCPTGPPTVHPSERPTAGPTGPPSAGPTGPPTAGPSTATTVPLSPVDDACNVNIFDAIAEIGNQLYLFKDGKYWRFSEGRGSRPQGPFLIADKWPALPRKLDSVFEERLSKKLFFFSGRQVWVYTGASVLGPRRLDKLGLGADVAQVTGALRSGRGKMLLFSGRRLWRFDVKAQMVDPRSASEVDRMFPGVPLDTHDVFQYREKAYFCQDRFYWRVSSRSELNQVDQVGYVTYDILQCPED

B1: phage clone displaying CSLHWGFWWC (from the CX9 library) (peptide)
peptide: CSLHWGFWWC
notes: not shown: phage coat protein to which the peptide is fused

Key:
APMA-activated MMP-9 [1] = biological target: T1, APMA-activated MMP-9 (human, UniProt P14780 94-707); experiment: phage attachment assay on MMP-9-coated wells
APMA-activated MMP-9 [2] = biological target: T1, APMA-activated MMP-9; experiment: phage panning on APMA-activated MMP-9 coated on wells; binding of each clone verified by attachment assay (Eu-labelled anti-M13)

Binder | binding (APMA-activated MMP-9 [1]) | binding (APMA-activated MMP-9 [2])
B1 | binds | binds
CRRHWGFEFC (peptide, not shown: large carriers) | binds | binds
CTTHWGFTLC (peptide, not shown: large carriers) | binds | binds
